Measurements taken from paper PMC11984401.
These are yes or no findings as the source states them, for the method shown. In cells and extracts the contact can be indirect. Binding can be weak; no strength is given. Sequences can lack the tags named with a protein.

The chains behind the UniProt entries cited, without tags or fusion partners. Where a name states a change or a piece, a line headed by the entry shows the natural chain unless it says otherwise.
UniProt Q13643: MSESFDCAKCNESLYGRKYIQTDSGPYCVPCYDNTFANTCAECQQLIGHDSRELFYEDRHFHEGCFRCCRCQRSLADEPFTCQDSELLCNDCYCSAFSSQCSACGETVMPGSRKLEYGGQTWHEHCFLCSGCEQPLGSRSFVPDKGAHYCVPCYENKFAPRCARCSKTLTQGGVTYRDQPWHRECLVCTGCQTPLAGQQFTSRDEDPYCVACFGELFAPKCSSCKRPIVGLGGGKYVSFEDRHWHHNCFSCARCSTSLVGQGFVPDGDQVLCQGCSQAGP

Target: T1, C-terminal FLAG-tagged AMBP (alpha-1-microglobulin/bikunin precursor) (UniProt P02760)
T1 sequence: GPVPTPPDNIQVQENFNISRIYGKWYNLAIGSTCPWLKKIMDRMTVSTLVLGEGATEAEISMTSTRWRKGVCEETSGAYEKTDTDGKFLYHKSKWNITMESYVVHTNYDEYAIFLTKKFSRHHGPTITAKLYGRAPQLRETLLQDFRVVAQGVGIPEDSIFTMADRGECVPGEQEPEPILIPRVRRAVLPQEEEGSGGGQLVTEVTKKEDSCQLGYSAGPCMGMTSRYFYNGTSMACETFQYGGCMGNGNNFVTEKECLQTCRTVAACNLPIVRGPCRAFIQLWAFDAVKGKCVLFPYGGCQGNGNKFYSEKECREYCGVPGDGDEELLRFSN
Test: co-IP; HEK293T co-transfected with AMBP-Flag and full-length or truncated FHL3-HA plasmids for 48 h; lysates precipitated with Flag antibodies; immunoblot with HA antibodies

Substance | binding
FHL3-HA lacking the LIM1 domain (from UniProt Q13643) (domain or fragment) | binds
FHL3-HA lacking the ZF domain (from UniProt Q13643) (domain or fragment) | no binding
FHL3-HA lacking the LIM4 domain (from UniProt Q13643) (domain or fragment) | binds
FHL3-HA lacking the LIM2 domain (from UniProt Q13643) (domain or fragment) | binds
FHL3-HA lacking the LIM3 domain (from UniProt Q13643) (domain or fragment) | binds
